# Laboratory results reported in PubChem BioAssay AID504467 (National Center for Advancing Translational Sciences (NCATS), 2011).
# In all, about 330,000 compounds went through this assay and about 7,700 (2.3%) were called active. The inconclusive results got no clear call from the source; some entries with a clear call stand among them for comparison. Calls follow the shape of the dose curve; as a rule, active = well fitted inhibition curve with a large enough effect; inconclusive = small, poorly fitted or top-dose-only effect, or effect the other way; inactive = flat fitted curve, though single readings scatter. Potencies beside an inconclusive call are fits to weak or partial responses and may not hold up.
# Experiment: qHTS screen for small molecules that inhibit ELG1-dependent DNA repair in human embryonic kidney (HEK293T) cells expressing luciferase-tagged ELG1; also: nearly all actives have a fitted effect of over 55% in size
# Conditions: HEK293T ELG1-luciferase reporter, luminescence, 16 h, DNA damage induced by 5-fluorouridine; series mostly up to 46.1 µM
# Procedure, shortened: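 Reporter activity after DNA damage by 5-fluorouridine is monitored. Compound-treated cells incubate 16 hr at 37 °C, then ONE-Glo is added for 30 min before luminescence reading.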
# Potency is read from the fitted curve at half-maximal effect.
row,SMILES,Potency
1,Nc1ncccc1OCc1ccc(Cl)c(Cl)c1,"inconclusive: 2.59 µM [activator, partial curve]"
2,O=C(Nc1ccccc1C(=O)NC(Cc1ccccc1)C(=O)NC1CCCCCC1)c1ccccc1 (centres undefined),"inconclusive: 29.1 µM [inhibitor, single point]"
3,CCOc1ccc(N2CC(C(=O)Nc3ccccc3C(=O)N3CCOCC3)CC2=O)cc1 (centres undefined),"inconclusive: 29.1 µM [activator, partial curve, poor fit]"
4,CCNC(=O)C1CCCN1C(=O)C(CCCN=C(N)N)NC(=O)C(CC(C)C)NC(=O)C(Cc1cn(Cc2ccccc2)cn1)NC(=O)C(Cc1ccc(O)cc1)NC(=O)C(CO)NC(=O)C(Cc1c[nH]c2ccccc12)NC(=O)C(Cc1cnc[nH]1)NC(=O)C1CCC(=O)N1 (centres undefined),inactive
5,COc1ccc(/C=N/Nc2nc(Nc3ccccc3)nc(N3CCCCC3)n2)cc1OC,active: 5.8 µM
6,CCOCc1nnc(NC(=O)c2ccco2)s1,"inconclusive: 29.1 µM [activator, partial curve, poor fit]"
7,Cc1cccc(NS(=O)(=O)c2cc(C(=O)N3CCc4ccccc4C3)ccc2Cl)c1C,"inconclusive: 29.1 µM [inhibitor, single point]"
8,N#Cc1cc(C#N)c(N2CCN(c3ccccn3)CC2)nc1N,"inconclusive: 11.6 µM [activator, partial curve]"
9,C[C@H](CO)N1C[C@H](C)[C@@H](CN(C)C(=O)NC2CCCCC2)Oc2c(NC(=O)Nc3ccc(C(F)(F)F)cc3)cccc2C1=O,"inconclusive: 32.6 µM [inhibitor, single point]"
10,CC(=O)N1CCN(CC(=O)Nc2ccccc2Sc2ccc(Cl)cc2)CC1,inactive
11,COc1ccccc1N1CCN(C2CCCN(C(=O)c3cccc(-c4ccco4)c3)C2)CC1 (centres undefined),active: 23.1 µM
12,C/C=C(\C)C(=O)OC(C)(C)[C@@H]1Cc2cc3ccc(=O)oc3cc2O1,"inconclusive: 0.651 µM [activator, partial curve, poor fit]"
13,COc1cc(C(=O)N/N=C/c2sc(=O)n(-c3ccccc3)c2Cl)cc(OC)c1OC,inactive
14,Cc1ccc2c(c1)[C@H]1[C@H](CO2)[C@H](c2ccccc2)[C@]2(C)C(=O)Nc3ccccc3C(=O)N12,"inconclusive: 7.3 µM [inhibitor, partial curve]"
15,CC1CCCC(NC(=O)COC(=O)c2cc3ccccc3oc2=O)C1C (centres undefined),"inconclusive: 5.8 µM [activator, single point]"
16,COCCNC(=O)CS(=O)Cc1nc(-c2ccc(Cl)cc2)oc1C (centres undefined),inactive
17,CCc1ccc(NC(=O)CSc2nc3ccccc3c(=O)n2CCCC(=O)NCCCN2CCOCC2)cc1,inactive
18,CCOCCSc1n[nH]c(=O)n1CCc1ccccc1,inactive
19,COc1ccc(-c2nc3ccc([N+](=O)[O-])cc3o2)cc1,"inconclusive: 2.59 µM [activator, full curve]"
20,COc1cccc(S(=O)(=O)NCc2ccc(C(=O)Nc3ccc(Cl)c(Cl)c3)cc2)c1,"inconclusive: 6.51 µM [inhibitor, single point]"
21,COc1ccc(CCNC(=O)CCNC(=O)c2ccc(Br)cc2)cc1OC,inactive
22,CCCC(=O)N(c1ccc2oc(=O)sc2c1)S(=O)(=O)c1cccs1,"inconclusive: 16.4 µM [inhibitor, partial curve]"
23,Cc1ccc(CNC(=O)C2CC3Cn4c(nc5cc6ccccc6cc54)C3N2C)o1 (centres undefined),inactive

row,SMILES,Potency
1,CN1C(=O)/C(=C/c2ccccc2Cl)Sc2ccc(C(=O)NCc3cccnc3)cc21,"inconclusive: 29.1 µM [inhibitor, single point]"
2,CC(=O)Nc1cccc(C(=O)Nc2ccccc2N2CCOCC2)c1,"inconclusive: 25.9 µM [inhibitor, single point]"
3,COc1ccc(C2=C(Nc3ccccc3)c3ccccc3C2=O)cc1,"inconclusive: 20.6 µM [activator, single point]"
4,Cc1cccc(NC(=O)C2CCN(S(=O)(=O)c3ccc4c(c3)OCCCO4)CC2)n1,"inconclusive: 1.3 µM [inhibitor, full curve]"
5,C=CCn1c(SCC(=O)Nc2cc3oc4ccccc4c3cc2OC)nnc1-c1cnccn1,active: 11.6 µM
6,CC(C)c1ccc(OCc2ccc(C(=O)N3CCN(c4ccccn4)CC3)cc2)cc1,inactive
7,COC(=O)c1cc(-c2ccc(OC)cc2)nc2nc(SC)[nH]c(=O)c12,inactive
8,Cc1cc(OCC(=O)N2CCN(c3ccccc3)CC2)c2c(C)c(C)c(=O)oc2c1,"inconclusive: 14.6 µM [activator, partial curve, poor fit]"
9,CCCCNC(=O)[C@H](Cc1c[nH]c2ccccc12)NC(=O)c1ccccc1Cl,"inconclusive: 20.6 µM [inhibitor, single point]"
10,CC(C)c1ccccc1NC(=O)CNCCc1ccc(C(F)(F)F)cc1,inactive
11,CCOC(=O)CCNC(=O)N1CCCC(N(C)CCc2ccccc2)C1 (centres undefined),inactive
12,CCCCC1=NN(C(=O)c2cocc2C)C(O)(C(F)(F)F)C1 (centres undefined),inactive
13,COC(=O)Cn1c(=NC(=O)CCS(=O)(=O)c2ccccc2)sc2c(OC)ccc(OC)c21,inactive
14,O=c1c2ccccc2ncn1CCCOc1ccccc1[N+](=O)[O-],"inconclusive: 16.4 µM [activator, partial curve]"
15,Cn1c(CCNC(=O)C2CCCCC2)nc2cc(NC(=O)c3cccs3)ccc21,"inconclusive: 10.3 µM [inhibitor, partial curve]"
16,O=C(O)CSCC(=O)Nc1ccc(Br)c(C(F)(F)F)c1,"inconclusive: 23.1 µM [activator, single point]"
17,COc1ccc(C(=O)/C=C/c2cn(CN3CCN(C)CC3)c3ccccc23)cc1,"inconclusive: 20.6 µM [activator, partial curve]"
18,CSc1nc(-c2ccccc2)nn1C(=O)c1ccco1,"inconclusive: 6.51 µM [activator, single point]"
19,COc1cccc(OCC(=O)O/N=C(\N)c2ccncc2)c1,"inconclusive: 16.4 µM [activator, single point]"
20,O=C(O)c1cccc(-c2ccc(/C=N/Nc3nn[nH]n3)o2)c1,"inconclusive: 20.6 µM [activator, partial curve]"
21,CC(=O)Nc1cccc(NC(=O)Cc2cccs2)c1,inactive
22,CCc1ccc(CNCc2cccs2)cc1,"inconclusive: 20.6 µM [activator, single point]"
23,COc1ccc([N+](=O)[O-])cc1NC(=O)CC(c1ccccc1)c1ccccc1,"inconclusive: 23.1 µM [inhibitor, single point]"

row,SMILES,Potency
1,COc1ccc(N(C)C(=O)c2cn(CC(C)C)c(=O)c3cc(OC)c(OC)cc23)c(OC)c1,active: 1.46 µM
2,Cc1cc(C(=O)N/N=C/c2ccc(O)c([N+](=O)[O-])c2)n[nH]1,"inconclusive: 18.4 µM [activator, partial curve, poor fit]"
3,Cc1ccc(-c2csc3ncnc(SCC(=O)NCC4CCCO4)c23)cc1 (centres undefined),inactive
4,CC1CCC2(CC1)NC(=O)N(CC(=O)NC(=O)Nc1ccc3c(c1)OCCO3)C2=O (centres undefined),"inconclusive: 32.6 µM [activator, partial curve, poor fit]"
5,Cc1csc2c(N3CCN(C(=O)c4ccc(C(C)(C)C)cc4)CC3)ncnc12,active: 14.6 µM
6,OC1(c2cccnc2)CCN(Cc2nnnn2Cc2ccccc2)CC1,inactive
7,c1ccc(-n2cnc3ccccc32)cc1,"inconclusive: 10.3 µM [inhibitor, partial curve]"
8,CC1CCN(S(=O)(=O)c2ccc3c(c2)N(CC(=O)NCCCN2CCCCC2)C(=O)CS3)CC1,inactive
9,CC(=O)Nc1ccc(NC(=O)/C(Cl)=C/c2ccccc2)cc1,"inconclusive: 14.6 µM [activator, partial curve]"
10,Cc1ccc(C(=O)Nc2ccon2)cc1S(=O)(=O)N1CCOCC1,inactive
11,CS(=O)(=O)N1CCC(C(=O)Nc2ccc3c(c2)OCCO3)CC1,"inconclusive: 20.6 µM [activator, partial curve, poor fit]"
12,COC(=O)c1sc(N2C(=O)c3oc4ccccc4c(=O)c3C2c2cccs2)nc1C (centres undefined),inactive
13,O=C(NNS(=O)(=O)c1ccc(CCCl)cc1)C(O)(c1ccccc1)c1ccccc1,inactive
14,O=C(Nc1ccccc1)c1cc2n(n1)C(C(F)(F)F)CC(C1CC1)N2 (centres undefined),"inconclusive: 16.4 µM [activator, partial curve]"
15,Cc1nn(C)cc1CNC(=O)c1cc2n(n1)C(C(F)(F)F)CC(c1cccs1)N2 (centres undefined),active: 23.1 µM
16,CCN1CCN(CC(O)COc2ccc3c(C)cc(=O)oc3c2)CC1 (centres undefined),"inconclusive: 20.6 µM [activator, single point]"
17,CCCCn1c(N)c(N(CCOC)C(=O)CSCc2c(C)noc2C)c(=O)[nH]c1=O,inactive
18,CCOc1ccc2nc(N(CCN(C)C)C(=O)c3cc4ccccc4cc3OC)sc2c1,"inconclusive: 29.1 µM [inhibitor, single point]"
19,O=C(Nc1cnc2ccccn2c1=O)c1ccc(Cl)cc1Cl,"inconclusive: 0.73 µM [activator, full curve]"
20,O=C(N/N=C/c1ccc(Sc2ccccn2)o1)c1cc2ccccc2cc1O,inactive
21,Nc1ncnc(Sc2ccc(Cl)cc2)c1[N+](=O)[O-],"inconclusive: 10.3 µM [inhibitor, partial curve]"
22,COc1ccc([N+](=O)[O-])cc1NC(=O)C(C)OC(=O)C1c2ccccc2Oc2ccccc21 (centres undefined),"inconclusive: 20.6 µM [inhibitor, single point]"
23,CCOC(=O)[C@H]1[C@H]2COc3ccc(Cl)cc3[C@@H]2N2C(=O)c3ccc(Cl)cc3NC(=O)[C@@]12C,inactive

# By substructure, the entries above containing two or more sulfur atoms.
row,SMILES,Potency
22,CCCC(=O)N(c1ccc2oc(=O)sc2c1)S(=O)(=O)c1cccs1,"inconclusive: 16.4 µM [inhibitor, partial curve]"
13,COC(=O)Cn1c(=NC(=O)CCS(=O)(=O)c2ccccc2)sc2c(OC)ccc(OC)c21,inactive
3,Cc1ccc(-c2csc3ncnc(SCC(=O)NCC4CCCO4)c23)cc1 (centres undefined),inactive
8,CC1CCN(S(=O)(=O)c2ccc3c(c2)N(CC(=O)NCCCN2CCCCC2)C(=O)CS3)CC1,inactive
12,COC(=O)c1sc(N2C(=O)c3oc4ccccc4c(=O)c3C2c2cccs2)nc1C (centres undefined),inactive
